Data: article doi:10.1101/2023.10.30.563552
These are yes or no findings as the source states them, for the method shown. Binding seen in cells or lysates may run through a third protein. Some results given as binding are weak or reduced against the parent protein; the word gives no strength.

The chains behind the UniProt entries cited, without tags or fusion partners.
UniProt Q13547: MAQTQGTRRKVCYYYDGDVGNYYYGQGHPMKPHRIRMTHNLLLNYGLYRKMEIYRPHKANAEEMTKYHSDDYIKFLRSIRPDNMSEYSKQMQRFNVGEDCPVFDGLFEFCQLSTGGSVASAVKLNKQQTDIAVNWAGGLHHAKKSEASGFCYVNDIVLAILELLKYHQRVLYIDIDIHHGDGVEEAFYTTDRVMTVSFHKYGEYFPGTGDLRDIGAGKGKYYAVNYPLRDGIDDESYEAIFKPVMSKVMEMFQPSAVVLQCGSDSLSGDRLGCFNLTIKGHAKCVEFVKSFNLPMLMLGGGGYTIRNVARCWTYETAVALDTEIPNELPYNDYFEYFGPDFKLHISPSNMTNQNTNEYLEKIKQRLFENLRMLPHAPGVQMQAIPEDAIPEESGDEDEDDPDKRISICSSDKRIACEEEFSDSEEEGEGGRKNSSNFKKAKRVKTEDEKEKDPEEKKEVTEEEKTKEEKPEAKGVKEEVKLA

Target: T1, JUNB (human (endogenous in CAPAN1 and CAPAN2)) (UniProt P17275)
T1 sequence: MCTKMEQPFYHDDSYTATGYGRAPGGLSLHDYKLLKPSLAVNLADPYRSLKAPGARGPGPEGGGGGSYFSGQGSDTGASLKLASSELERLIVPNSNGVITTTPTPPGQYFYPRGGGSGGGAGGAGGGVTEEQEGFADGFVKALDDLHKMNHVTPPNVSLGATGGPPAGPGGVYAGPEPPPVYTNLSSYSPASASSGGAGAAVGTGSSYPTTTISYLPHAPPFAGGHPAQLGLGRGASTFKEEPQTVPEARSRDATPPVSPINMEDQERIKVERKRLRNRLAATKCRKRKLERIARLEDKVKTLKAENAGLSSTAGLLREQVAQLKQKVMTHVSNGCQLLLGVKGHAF
Assay: co-IP

## HDAC1 (from UniProt Q13547 1-482)
  binding: binds
